Test results published in patent publication US20050265970A1.
No constants are given. Whether binding was seen depends on the method and setting. For some of these results: In cells and extracts the contact can be indirect. For some of these results: A result given as binding can be weak or reduced; the word gives no strength. Sequences can lack the tags named with a protein.

By UniProt entry, the sequences of proteins in these tests, tags left out. Where a name states a change or a piece, a line headed by the entry shows the natural chain unless it says otherwise.
UniProt O14733: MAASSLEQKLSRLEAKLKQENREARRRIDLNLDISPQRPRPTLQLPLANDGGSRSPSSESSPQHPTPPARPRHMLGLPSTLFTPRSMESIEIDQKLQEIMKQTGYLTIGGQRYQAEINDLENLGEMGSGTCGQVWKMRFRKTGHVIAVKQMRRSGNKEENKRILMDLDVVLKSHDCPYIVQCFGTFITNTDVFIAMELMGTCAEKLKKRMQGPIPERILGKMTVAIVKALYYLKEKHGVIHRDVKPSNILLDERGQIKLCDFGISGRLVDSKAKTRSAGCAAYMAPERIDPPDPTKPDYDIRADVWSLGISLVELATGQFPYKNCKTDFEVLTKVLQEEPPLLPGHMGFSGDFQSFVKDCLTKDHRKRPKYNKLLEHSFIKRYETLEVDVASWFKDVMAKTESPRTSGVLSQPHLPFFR

Columns and labels:
[1] = biological target: JNKK2 (63-401), in vitro translated (human) (UniProt O14733); experiment: GST pull-down of 35S-labeled in vitro translated MKK7 truncations
[2] = biological target: JNKK2 (91-401), in vitro translated (human) (UniProt O14733); experiment: as above
[3] = biological target: JNKK2 (132-401), in vitro translated (human) (UniProt O14733); experiment: as above
[4] = biological target: JNKK2 (63-401), in vitro translated (human) (UniProt O14733); experiment: GST pull-down of 35S-labeled in vitro translated JNKK2 truncations
[5] = biological target: JNKK2 (91-401), in vitro translated (human) (UniProt O14733); experiment: as above
[6] = biological target: JNKK2 (132-401), in vitro translated (human) (UniProt O14733); experiment: as above
[7] = biological target: MKK3b (HA-tagged, in 293 cells); experiment: co-IP from 293 cells, anti-FLAG beads, anti-HA Western blot
[8] = biological target: MKK6 (HA-tagged, in 293 cells); experiment: as above
[9] = biological target: MKK3b (HA-tagged, in 293 cells); experiment: combined immunoprecipitation and Western blot, 293 cells
[10] = biological target: MKK6 (HA-tagged, in 293 cells); experiment: as above

B1: GST-Gadd45β (full-length murine Gadd45β directly fused to GST) (protein, UniProt P22339 1-160, looked up, not shown: a dimerising Fc or GST)
chain: MTLEELVASDNAVQKMQAVTAAVEQLLVAAQRQDRLTVGVYEAAKLMNVDPDSVVLCLLAIDEEEEDDIALQIHFTLIQSFCCDNDIDIVRVSGMQRLAQLLGEPAETLGTTEARDLHCLLVTNCHTDSWKSQGLVEVASYCEESRGNNQWVPYISLEER
binding [1]: binds | binding [2]: binds | binding [3]: binds | binding [4]: binds | binding [5]: binds | binding [6]: binds

B2: FLAG-Gadd45β (full-length murine Gadd45β, pcDNA-FLAG-Gadd45β, expressed in 293 cells) (protein, UniProt P22339 1-160, looked up, not shown: small tags and cut ends)
chain: MTLEELVASDNAVQKMQAVTAAVEQLLVAAQRQDRLTVGVYEAAKLMNVDPDSVVLCLLAIDEEEEDDIALQIHFTLIQSFCCDNDIDIVRVSGMQRLAQLLGEPAETLGTTEARDLHCLLVTNCHTDSWKSQGLVEVASYCEESRGNNQWVPYISLEER
binding [7]: no binding | binding [8]: no binding | binding [9]: no binding | binding [10]: no binding
